Measurements: PubChem BioAssay AID624297 (National Center for Advancing Translational Sciences (NCATS), 2012)
Among all 340,000 compounds or so, about 6,200 (1.8%) were called active. Inconclusive results, whose numbers are uncertain, are shown with a selection of clear calls. Calls come from the whole dose curve; as a rule, active = well fitted activation curve with a large enough effect; inconclusive = small, poorly fitted or top-dose-only effect; inactive = no such curve, though single readings can be large or run the other way. Where the call is inconclusive, the potency comes from a doubtful curve fit.

Test: A quantitative high throughput screen for small molecules that induce DNA re-replication in SW480 colon adenocarcinoma cells. For re-replication activation: % of control where 0% means no effect. Note: nearly all actives have a fitted effect of over 55% in size.
Details: Hoechst DNA content imaging, 48 h; re-replication activation: at 46.1 µM (top of the series)
Summary of the method: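 Cells (250 per well) received 23 nL compound or DMSO by pin tool and were kept 48 hr at 37 C, 5% CO2. Nuclei were then stained with Hoechst for 40 min and scanned for DNA content.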
Potency is the fitted concentration of half-maximal effect.

| SMILES | Potency | re-replication activation |
| --- | --- | --- |
| COc1ccccc1N1CCN(C(=O)c2cc(C(C)(C)C)oc2C)CC1 | inconclusive: 3.26 µM [activator, partial curve, poor fit] |  |
| CC(=O)c1ccc(OCC(O)CN2CCN(c3ccc(F)cc3)CC2)cc1 (centres undefined) |  | inactive: 28.5% |
| C=CCSc1nc2sc3c(c2c(=O)n1CC)CCc1ccccc1-3 |  | inactive: 19.6% |
| Cc1ccc(SC(CC(=O)c2ccc(C)cc2)C(=O)O)cc1 (centres undefined) | inconclusive: 29.1 µM [activator, single point] |  |
| O=C(Nc1ncc(S(=O)(=O)c2ccc([N+](=O)[O-])cc2)s1)c1ccc2ccccc2c1 |  | inactive: 1.03% |
| O=C(c1ccc(S(=O)(=O)Nc2ccccc2)cc1)N1CCC1 | active: 14.6 µM |  |
| O=C1CC/C=C\C[C@@H](CC(=O)N(CCO)Cc2ccccc2)C(=O)NC[C@@H](c2ccccc2)O1 |  | inactive: -0.956% |
| COc1ccc(-c2csc(N3CCN(c4cc(C)nc5ccccc45)CC3)n2)cc1OC | inconclusive: 23.1 µM [activator, single point] |  |
| O=C(c1ccc(=O)[nH]c1)N1CCN(S(=O)(=O)c2ccc(Cl)cc2)CC1 | inconclusive: 23.1 µM [activator, single point] |  |
| COc1ccc(COc2cc(-c3cccc(OC)c3)nc3ccc(NC(=O)C(C)C)cc23)cc1 | active: 14.6 µM |  |
| COC(=O)[C@]1(Cc2ccccc2)N[C@H](c2ccc(-c3cccc(Cl)c3)c(OC)c2)[C@@H]2C(=O)N(C)C(=O)[C@@H]21 | inconclusive: 18.4 µM [activator, single point] |  |
| CC(C)(C)NC(=O)C(c1ccc(-c2ccccc2)cc1)N(C[C@H]1CC[C@@H]([C@@H]2CC[C@H](CO)O2)O1)C(=O)c1ccccc1F (some centres undefined) | inconclusive: 18.4 µM [activator, single point] |  |
| O=C(NC(=S)Nc1ccc(CN2CCCCC2)cc1)c1ccco1 |  | inactive: 9.15% |
| COc1cc(CNCCN2CCOCC2)ccc1OCc1cccc(Cl)c1 | inconclusive: 29.1 µM [activator, single point] |  |
| Cc1cc(C)n(CC(=O)N/N=C/c2ccccn2)n1 | inconclusive: 6.51 µM [activator, single point] |  |
| CCOC(=O)c1c(NC(=O)CNCCO)sc(C)c1C |  | inactive: -6.9% |
| CCOc1ccc(NC(=O)COC(=O)CCC(=O)c2cccs2)cc1 | inconclusive: 29.1 µM [activator, single point] |  |
| COc1ccc(OC)c(CNC(=O)Cn2nc(C)c3c(C)n(-c4ccc(C)cc4)nc3c2=O)c1 | inconclusive: 29.1 µM [activator, single point] |  |
| CC1(C)CC(=O)C2=C(C1)Nc1ccccc1NC2c1ccccn1 (centres undefined) | inconclusive: 32.6 µM [activator, single point] |  |
| Cc1nc(/C=C/c2ccccc2)[nH]c(=O)c1-c1ccccc1 | inconclusive: 6.51 µM [activator, single point] |  |
| COc1cc(OC)cc(C(=O)Nc2nc(CC(=O)NCc3ccc(F)cc3)cs2)c1 | inconclusive: 29.1 µM [activator, single point] |  |
| CC(C)C(=O)Nc1ccc(S(=O)(=O)N2CCC(c3nc4ccccc4[nH]3)CC2)cc1 |  | inactive: -4.75% |
| O=C(O)Cc1csc(Nc2cccc(Cl)c2)n1 | inconclusive: 0.116 µM [activator, full curve, poor fit] |  |

| SMILES | Potency | re-replication activation |
| --- | --- | --- |
| NC(=S)N/N=C/c1ccc(-c2cc(Cl)c(Cl)cc2Cl)o1 | inconclusive: 16.4 µM [activator, single point] |  |
| Nc1ccccc1C(=O)Nc1cccc(C(=O)O)c1 | inconclusive: 18.4 µM [activator, single point] |  |
| O=C(CCCn1c(=S)[nH]c2ccc(Br)cc2c1=O)N1CCN(c2ccccn2)CC1 | inconclusive: 29.1 µM [activator, single point] |  |
| CCC(C)c1ccc(C(C)NC(=S)NC2CCCCC2)cc1 (centres undefined) | inconclusive: 29.1 µM [activator, single point] |  |
| COc1ccc(C(=O)C2CCCN(C(=O)c3cccc(Cl)c3F)C2)cc1OC (centres undefined) |  | inactive: 13% |
| Fc1ccccc1Cc1noc(CN2CCC(OCc3cccnc3)CC2)n1 |  | inactive: 2.34% |
| O=C(CN1CCc2ccccc2C1)NCC(=O)Nc1ccc(F)cc1 | inconclusive: 29.1 µM [activator, single point] |  |
| COc1ccc(C)cc1NC(=O)C(Sc1nnc(Nc2ccccc2F)s1)c1ccccc1 (centres undefined) | inconclusive: 23.1 µM [activator, partial curve, poor fit] |  |
| Clc1cccc(Cl)c1Cn1cnc2c(NCc3ccco3)ncnc21 | active: 10 µM |  |
| CCCCc1ccc(-c2csc(/C(C#N)=C/c3ccc(C)o3)n2)cc1 |  | inactive: -0.0184% |
| CCOC(=O)c1ccc(N2C(=O)c3n[nH]c(C)c3C2c2ccc(O)cc2)cc1 (centres undefined) |  | inactive: 4.07% |
| CSc1ncc(Cl)c(C(=O)Nc2cccc(C)c2)n1 |  | inactive: 69.8% |
| O=C(Nc1ccccc1)N1CCCN(c2nccc(C(F)(F)F)n2)CC1 |  | inactive: -10.1% |
| Cc1ccc(N(C(=O)CCl)C(C(=O)NC2CCCCC2)c2cccnc2)cc1C (centres undefined) | inconclusive: 1.58 µM [activator, full curve, poor fit] |  |
| COc1ccc(C2CC(c3c(O)cc(C)oc3=O)=NCCS2)c(OC)c1 (centres undefined) | inconclusive: 2.31 µM [activator, partial curve, poor fit] |  |
| O=C(COC(=O)/C=C/c1ccc(Cl)cc1Cl)NCc1ccco1 |  | inactive: 0.819% |
| O=C(Nc1nc2ccc(C(=O)N3CCCCC3)cc2s1)C1CCCCC1 | active: 6.51 µM |  |
| O=C(Cc1ccc(NC(=O)C2CCCN(C(=O)CCc3ccccc3)C2)cc1)Nc1cccc(C(=O)N2CCCCC2)c1 (centres undefined) |  | inactive: 5.67% |
| COc1cc(NC(=O)COc2ccc3c(C)cc(=O)oc3c2C)cc(OC)c1OC | inconclusive: 5.8 µM [activator, partial curve, poor fit] |  |
| CN1CCN(C(=O)C2=C[C@@H](c3ccccc3)C[C@@H](OCCCCO)O2)CC1 | inconclusive: 29.1 µM [activator, single point] |  |
| COCC1CCCCC1OS(N)(=O)=O (centres undefined) |  | inactive: -2.83% |
| CN(CC(=O)Nc1ccc(S(=O)(=O)N2CCCC2)cc1)CC(=O)Nc1cccc(F)c1 |  | inactive: 9.16% |
| Cc1ccc(Cl)cc1Nc1nc(N2CCOCC2)nc(N2CCOCC2)n1 | inconclusive: 29.1 µM [activator, single point] |  |

A different layout for 4 compounds above:
Cc1cc(C)n(CC(=O)N/N=C/c2ccccn2)n1
  Potency: inconclusive: 6.51 µM [activator, single point]
Fc1ccccc1Cc1noc(CN2CCC(OCc3cccnc3)CC2)n1
  re-replication activation: inactive: 2.34%
CCOC(=O)c1ccc(N2C(=O)c3n[nH]c(C)c3C2c2ccc(O)cc2)cc1 (centres undefined)
  re-replication activation: inactive: 4.07%
CN(CC(=O)Nc1ccc(S(=O)(=O)N2CCCC2)cc1)CC(=O)Nc1cccc(F)c1
  re-replication activation: inactive: 9.16%

Next part

| SMILES | Potency | re-replication activation |
| --- | --- | --- |
| Cc1ccccc1NC(=O)C1CCN(S(=O)(=O)c2ccc3c(c2)NC(=O)C(C)S3)CC1 (centres undefined) | inconclusive: 3.26 µM [activator, single point] |  |
| O=C(Nc1ccc([N+](=O)[O-])cc1)c1cc(-c2ccccn2)nc2c(Cl)cccc12 | inconclusive: 16.4 µM [activator, single point] |  |
| Cc1ccc(NC(=O)COc2ncnc3sccc23)cc1S(=O)(=O)N(C)C |  | inactive: 1.91% |
| CCCn1c(SCC(=O)NC2CC2)nnc1-c1cccs1 | inconclusive: 18.4 µM [activator, single point] |  |
| Fc1ccc(F)c(C2=NNC(=Nc3ccccc3F)SC2)c1 | inconclusive: 20.6 µM [activator, single point] |  |
| CC(C)OC(=O)n1c(=S)oc2ccccc21 | inconclusive: 32.6 µM [activator, partial curve, poor fit] |  |
| COc1cc(CN2CCNC(=O)C2CC(=O)NC2CCC2)cc(OC)c1 (centres undefined) |  | inactive: 1.95% |
| CCOC(=O)c1cnc(SCc2ccccc2)nc1N |  | inactive: 5.54% |
| Cc1cc(OC(=O)c2ccc(S(=O)(=O)N(C)C)cc2)c([N+](=O)[O-])c(=O)[nH]1 |  | inactive: -6.64% |
| COCCCNC(=O)C[C@H]1C[C@H](C(=O)N2CCCCC2)[C@@]2(C)c3[nH]c4cc(-c5ccco5)ccc4c3CCN2C1=O | inconclusive: 14.6 µM [activator, single point] |  |
| O=CNNC(=O)c1cccc([N+](=O)[O-])c1 | inconclusive: 9.2 µM [activator, single point] |  |
| COc1ccc(Br)cc1CN(C)CC(O)COc1ccc(Br)cc1 (centres undefined) | inconclusive: 20.6 µM [activator, single point] |  |
| COc1ccccc1NC(=O)c1c(N=Cc2c(O)ccc3ccccc23)cnn1C | inconclusive: 5.8 µM [activator, full curve, poor fit] |  |
| COc1ccc(Br)cc1C(=O)NC(=S)Nc1ccc(CN2CCOCC2)cc1 | inconclusive: 20.6 µM [activator, single point] |  |
| Cc1ccccc1NC(=O)COc1coc(CN2CCN(Cc3ccccc3)CC2)cc1=O | inconclusive: 0.0046 µM [activator, full curve, poor fit] |  |
| O=C1NC(=O)C(=Cc2ccccc2[N+](=O)[O-])S1 | inconclusive: 29.1 µM [activator, single point] |  |
| O=C(CSc1ccc2c(c1)OCCO2)Nc1ccc(Cl)cn1 | inconclusive: 32.6 µM [activator, partial curve, poor fit] |  |
| O=C(OCC(=O)N1CCCc2ccccc21)c1ccc(C(F)(F)F)cc1 | inconclusive: 11.6 µM [activator, partial curve, poor fit] |  |
| CCOC(=O)c1oc2ccccc2c1NC(=O)c1cccc(OC)c1OC | inconclusive: 23.1 µM [activator, single point] |  |
| Cc1nn(CC(=O)N(C)C)c(C)c1S(=O)(=O)N1CCOCC1 |  | inactive: -39.4% |
| COc1ccc(C2CC(c3ccccc3)=NN2C(=O)CCC(=O)O)cc1 (centres undefined) |  | inactive: -1.84% |
| Cc1ccc(S(=O)(=O)NNC(=O)c2c(O)c3ccccc3[nH]c2=O)cc1 | inconclusive: 18.4 µM [activator, single point] |  |
| CC(CCc1ccccc1)NC(=O)c1cc2sccc2n1C (centres undefined) | inconclusive: 29.1 µM [activator, partial curve, poor fit] |  |
